In patent US20060035272A1:
Results are given in words; binding and its absence hold for the method and conditions named. Some results given as binding are weak or reduced against the parent protein; the word gives no strength.

By UniProt entry, the sequences of proteins in these tests, tags left out. Where a name states a change or a piece, a line headed by the entry shows the natural chain unless it says otherwise. Residues count along the entry.
UniProt P04386: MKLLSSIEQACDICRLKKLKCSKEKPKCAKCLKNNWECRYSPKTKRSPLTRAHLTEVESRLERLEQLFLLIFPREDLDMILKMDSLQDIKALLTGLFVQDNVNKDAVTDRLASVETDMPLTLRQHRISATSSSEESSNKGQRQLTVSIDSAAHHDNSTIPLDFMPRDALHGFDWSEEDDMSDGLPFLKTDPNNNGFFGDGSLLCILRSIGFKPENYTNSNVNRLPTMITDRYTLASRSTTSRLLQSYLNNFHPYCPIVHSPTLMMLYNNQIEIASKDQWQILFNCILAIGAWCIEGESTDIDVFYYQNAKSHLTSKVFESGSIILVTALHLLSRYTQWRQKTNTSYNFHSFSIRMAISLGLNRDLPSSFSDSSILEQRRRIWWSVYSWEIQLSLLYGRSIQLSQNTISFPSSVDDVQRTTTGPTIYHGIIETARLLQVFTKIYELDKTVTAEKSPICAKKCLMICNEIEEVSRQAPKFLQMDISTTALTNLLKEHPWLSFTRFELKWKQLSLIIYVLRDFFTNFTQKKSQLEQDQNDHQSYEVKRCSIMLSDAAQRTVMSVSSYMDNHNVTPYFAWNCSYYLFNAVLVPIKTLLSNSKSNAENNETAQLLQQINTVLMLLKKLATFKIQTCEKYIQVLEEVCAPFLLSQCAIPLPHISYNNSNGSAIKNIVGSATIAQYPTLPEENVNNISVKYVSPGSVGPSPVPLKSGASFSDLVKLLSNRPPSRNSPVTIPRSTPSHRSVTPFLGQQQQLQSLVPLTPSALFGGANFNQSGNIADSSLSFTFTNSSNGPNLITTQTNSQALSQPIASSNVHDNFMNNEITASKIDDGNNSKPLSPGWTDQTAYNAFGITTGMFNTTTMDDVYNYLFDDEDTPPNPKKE
UniProt Q14186: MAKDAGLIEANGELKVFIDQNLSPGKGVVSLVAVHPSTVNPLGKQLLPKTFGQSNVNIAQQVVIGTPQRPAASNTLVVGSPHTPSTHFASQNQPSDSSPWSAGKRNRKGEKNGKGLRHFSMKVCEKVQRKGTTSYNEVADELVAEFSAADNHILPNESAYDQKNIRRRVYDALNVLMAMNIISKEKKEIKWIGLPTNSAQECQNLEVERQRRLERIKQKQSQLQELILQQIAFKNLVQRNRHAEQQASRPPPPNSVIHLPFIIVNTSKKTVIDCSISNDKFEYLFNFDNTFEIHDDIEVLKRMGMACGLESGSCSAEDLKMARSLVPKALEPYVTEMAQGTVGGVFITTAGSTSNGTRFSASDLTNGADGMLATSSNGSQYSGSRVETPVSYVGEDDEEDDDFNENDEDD
UniProt Q8R0K9, residues 2-410: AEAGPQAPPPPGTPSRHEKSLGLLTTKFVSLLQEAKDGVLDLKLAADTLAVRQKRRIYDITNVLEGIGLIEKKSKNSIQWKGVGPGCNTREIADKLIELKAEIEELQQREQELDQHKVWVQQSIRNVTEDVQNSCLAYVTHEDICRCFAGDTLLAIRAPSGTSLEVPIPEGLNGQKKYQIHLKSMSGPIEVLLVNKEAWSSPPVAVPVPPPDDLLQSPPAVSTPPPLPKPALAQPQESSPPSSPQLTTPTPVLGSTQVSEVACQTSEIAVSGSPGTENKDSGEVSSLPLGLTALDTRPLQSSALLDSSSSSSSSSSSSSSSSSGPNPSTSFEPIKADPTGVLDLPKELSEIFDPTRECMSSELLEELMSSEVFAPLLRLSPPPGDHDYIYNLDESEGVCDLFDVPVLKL
UniProt Q61502: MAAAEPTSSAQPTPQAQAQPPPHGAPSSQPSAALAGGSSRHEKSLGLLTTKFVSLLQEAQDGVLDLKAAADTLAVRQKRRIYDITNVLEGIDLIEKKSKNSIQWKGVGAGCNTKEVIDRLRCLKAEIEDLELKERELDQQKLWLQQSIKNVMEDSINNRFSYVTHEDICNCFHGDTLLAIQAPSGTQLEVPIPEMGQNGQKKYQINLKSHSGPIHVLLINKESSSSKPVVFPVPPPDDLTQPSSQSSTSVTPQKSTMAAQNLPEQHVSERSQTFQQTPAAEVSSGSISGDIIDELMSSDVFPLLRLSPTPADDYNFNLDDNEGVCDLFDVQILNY

Assays:
[1] = biological target: T1, full length human DP1 fused at its N-terminus to the GAL4 DNA binding domain (encoded by vector pMAB32) (human) (UniProt P04386+Q14186); assay: yeast two-hybrid selection, GAL4 AD-cDNA prey against GAL4 DB-DP1 bait
[2] = biological target: T1, full length human DP1 fused at its N-terminus to the GAL4 DNA binding domain (encoded by vector pMAB32) (human); assay: yeast two-hybrid in strain MaV203, HIS3 reporter; GAL4 AD-cDNA prey against GAL4 DB-DP1 bait; clones identified by PCR

binding [1]	binding [2]	Substance
binds	binds	E2F4 cDNA clone from a mouse brain cDNA library, fused to the GAL4 Activation Domain (vector pMAB58) (from UniProt Q8R0K9 2-410)
binds	binds	E2F5 cDNA clone from a mouse brain cDNA library, fused to the GAL4 Activation Domain (vector pMAB58) (from UniProt Q61502 1-335)
